No constants are given. Whether binding was seen depends on the method and setting.
How the values were obtained:
[1] = target: eukaryotic initiation factor 3 subunit l (human) (UniProt Q9Y262); assay: cross-linking; affinity purified h-48S complexes cross-linked with 1 mM DSS-d0/d12 in 20 mM HEPES-KOH pH 8, 100 mM KCl, 5 mM MgCl2, 0.25 mM GMPPNP; LC-MS, xQuest, FDR <5%; both purified
[2] = target: eukaryotic initiation factor 3 subunit e (human) (UniProt P60228); assay: as above

By UniProt entry, the sequences of proteins in these tests, tags left out.
UniProt Q9Y262: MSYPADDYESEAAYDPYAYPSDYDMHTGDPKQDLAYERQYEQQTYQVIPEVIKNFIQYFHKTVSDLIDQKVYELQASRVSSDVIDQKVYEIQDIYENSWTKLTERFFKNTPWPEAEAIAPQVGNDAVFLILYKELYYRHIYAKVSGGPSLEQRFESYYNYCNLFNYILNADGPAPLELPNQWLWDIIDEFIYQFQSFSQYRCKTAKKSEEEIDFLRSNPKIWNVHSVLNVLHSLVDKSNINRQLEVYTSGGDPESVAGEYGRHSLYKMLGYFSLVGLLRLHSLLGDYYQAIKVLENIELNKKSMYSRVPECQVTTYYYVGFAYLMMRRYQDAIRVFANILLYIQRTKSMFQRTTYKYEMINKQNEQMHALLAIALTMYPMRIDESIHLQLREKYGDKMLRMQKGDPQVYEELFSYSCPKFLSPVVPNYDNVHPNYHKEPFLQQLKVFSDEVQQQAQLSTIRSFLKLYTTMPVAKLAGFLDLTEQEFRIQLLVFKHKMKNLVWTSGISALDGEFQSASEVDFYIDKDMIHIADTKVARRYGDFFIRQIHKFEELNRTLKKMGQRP
UniProt P60228: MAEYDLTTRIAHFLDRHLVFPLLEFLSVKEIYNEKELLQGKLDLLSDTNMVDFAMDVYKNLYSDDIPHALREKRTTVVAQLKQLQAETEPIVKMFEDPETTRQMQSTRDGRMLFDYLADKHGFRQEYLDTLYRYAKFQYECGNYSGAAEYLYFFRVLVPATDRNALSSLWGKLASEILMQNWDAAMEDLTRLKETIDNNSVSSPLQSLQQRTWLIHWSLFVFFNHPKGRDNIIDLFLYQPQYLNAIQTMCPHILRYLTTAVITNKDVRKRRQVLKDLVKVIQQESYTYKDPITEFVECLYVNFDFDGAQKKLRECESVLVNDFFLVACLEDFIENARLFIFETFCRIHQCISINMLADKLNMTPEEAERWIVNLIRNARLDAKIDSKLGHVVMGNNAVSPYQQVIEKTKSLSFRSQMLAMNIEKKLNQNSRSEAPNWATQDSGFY
UniProt O75821: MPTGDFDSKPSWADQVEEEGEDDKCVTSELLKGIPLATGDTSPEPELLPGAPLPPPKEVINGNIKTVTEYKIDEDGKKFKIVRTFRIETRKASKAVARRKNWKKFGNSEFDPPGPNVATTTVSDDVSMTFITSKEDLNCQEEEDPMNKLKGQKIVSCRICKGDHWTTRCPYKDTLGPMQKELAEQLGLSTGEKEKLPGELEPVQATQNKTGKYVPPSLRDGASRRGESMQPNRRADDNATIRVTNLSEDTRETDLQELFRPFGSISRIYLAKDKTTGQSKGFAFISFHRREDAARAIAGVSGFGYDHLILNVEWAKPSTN
UniProt Q13347: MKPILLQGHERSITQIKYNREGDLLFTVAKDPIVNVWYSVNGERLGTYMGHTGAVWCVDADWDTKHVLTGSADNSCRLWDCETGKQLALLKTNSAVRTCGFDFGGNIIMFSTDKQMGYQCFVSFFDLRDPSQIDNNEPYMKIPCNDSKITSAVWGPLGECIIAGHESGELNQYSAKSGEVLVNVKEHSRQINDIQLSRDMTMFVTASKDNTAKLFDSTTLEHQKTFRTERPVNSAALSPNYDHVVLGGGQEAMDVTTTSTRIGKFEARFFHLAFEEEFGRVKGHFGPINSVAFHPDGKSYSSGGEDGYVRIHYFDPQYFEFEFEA

Row | binding [1] | binding [2] | Substance
1 | no binding | no binding | eukaryotic initiation factor 3 subunit g (from UniProt O75821 1-320)
2 | no binding | no binding | eukaryotic initiation factor 3 subunit i (from UniProt Q13347 1-325)

Reference: article PMC5861459
